According to PubChem BioAssay AID540275 (National Center for Advancing Translational Sciences (NCATS), 2011):
Among all 320,000 compounds or so, about 620 (0.19%) were called active. The inconclusive results got no clear call from the source; some entries with a clear call stand among them for comparison. Rule as the data show it: active = activation above about 80%; inconclusive = between about 30% and that limit; inactive = weaker than that.

Protein sequences, listed by entry. Tags and fused reporters are not part of them.
UniProt Q8NER1, whole entry, looked up: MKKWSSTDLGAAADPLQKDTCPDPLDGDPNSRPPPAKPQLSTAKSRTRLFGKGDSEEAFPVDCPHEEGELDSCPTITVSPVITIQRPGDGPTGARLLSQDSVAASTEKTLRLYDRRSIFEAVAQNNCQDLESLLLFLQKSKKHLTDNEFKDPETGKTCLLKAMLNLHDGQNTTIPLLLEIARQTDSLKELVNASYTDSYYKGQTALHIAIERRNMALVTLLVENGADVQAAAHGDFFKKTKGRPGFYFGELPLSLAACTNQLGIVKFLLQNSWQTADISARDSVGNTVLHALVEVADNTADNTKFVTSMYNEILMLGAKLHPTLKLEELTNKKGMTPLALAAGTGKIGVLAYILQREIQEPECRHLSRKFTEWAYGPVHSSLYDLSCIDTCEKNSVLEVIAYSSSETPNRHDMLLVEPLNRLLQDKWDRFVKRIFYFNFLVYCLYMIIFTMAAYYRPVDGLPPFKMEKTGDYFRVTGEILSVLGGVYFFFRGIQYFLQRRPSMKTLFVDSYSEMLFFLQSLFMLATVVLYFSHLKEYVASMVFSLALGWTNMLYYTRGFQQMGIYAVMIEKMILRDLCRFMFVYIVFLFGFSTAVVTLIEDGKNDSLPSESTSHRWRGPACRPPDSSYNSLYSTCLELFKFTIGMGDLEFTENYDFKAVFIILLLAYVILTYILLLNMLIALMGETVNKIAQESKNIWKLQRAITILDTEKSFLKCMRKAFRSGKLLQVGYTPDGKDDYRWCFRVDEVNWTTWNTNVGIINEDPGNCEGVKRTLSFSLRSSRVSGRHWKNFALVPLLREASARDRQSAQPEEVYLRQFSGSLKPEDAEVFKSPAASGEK

biological target: Transient receptor potential cation channel subfamily V member 1 (Homo sapiens) (UniProt Q8NER1); test: HTS Assay for Compounds that Act as Agonists of the Vanilloid Receptor 1; conditions: TRPV1-expressing cells, Fluo-8 calcium influx, agonist mode; at 8.33 µM, active compounds read high; also: 0% is about no effect
Method in brief: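 Cells expressing TRPV1 were dye-loaded with Fluo-8 and read kinetically: 10 s baseline, 3 min after compound (agonist portion), then 2 min after EC20 capsaicin (allosteric enhancer portion). Calcium-bound dye fluorescence at 480/520 nm.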

Compound | activation
S=C(NCc1ccccc1)Nc1ccc(Oc2ccccc2)cc1 | inconclusive: 61%
CN(C)/N=C/c1cn(-c2ccccc2)nc1-c1cccnc1 | inconclusive: 43%
CCOc1cc2c3c(c1)C1(C(=O)N3C(C)(C)CC2C)C(C#N)=C(N)N2C(=C1C#N)Nc1ccccc12 (centres undefined) | inconclusive: 55.4%
CC(=O)N1N=C(c2c(-c3ccccc3)c3cc(C)ccc3[nH]c2=O)CC1c1ccco1 (centres undefined) | inactive: 1.13%
O=C(NC(=S)NCCC1=CCCCC1)c1ccc(Br)o1 | inconclusive: 55%
CCOC(=O)CN1C(c2ccc(O)cc2)Nc2ccc(Br)cc2C1c1ccccc1 (centres undefined) | inconclusive: 59.7%
N#Cc1c(N)nc(SCC(=O)OCc2ccccc2)c(C#N)c1-c1ccco1 | inactive: -1.81%
CCCN(CCC)Cc1c(C(=O)N/N=C/c2ccc(Br)cc2)nnn1-c1nonc1N | inactive: -2.08%
Cc1cc(C)nc(NS(=O)(=O)c2ccc(CC(C)C)cc2)c1 | inconclusive: 35.1%
O=C(/C=C/c1cccc([N+](=O)[O-])c1)NC(=S)Nc1ccc(CN2CCOCC2)cc1 | inactive: -5.49%
NC(=O)[C@H]1CC2(CC(c3cccc(NC(=O)COc4ccc(Cl)cc4)c3)=NO2)CN1C(=O)CC(c1ccccc1)c1ccccc1 (some centres undefined) | inactive: -1.01%
CC(/C=C/c1ccccc1F)=N\NC(=O)c1ccccc1 | inactive: 24.9%
Cc1ccc(C)c(N2CCN(C(=O)C3CCCN(c4ncnc5c4nc4n5CCCCC4)C3)CC2)c1 (centres undefined) | inconclusive: 44.7%
c1cncc(-c2nnc(-c3ccco3)o2)c1 | inactive: 0.0549%
Cc1c(C(=O)NCCc2ccccc2)oc2ccccc12 | inconclusive: 48%
CC(=O)Nc1ccc(S[C@@H](CCN2CC[C@H](O)CCC2=O)c2ccccc2)cc1 | inactive: -0.978%
O=C(C1CCCN(S(=O)(=O)c2cc(Cl)ccc2Cl)C1)N1CCCCCC1 (centres undefined) | inconclusive: 34.4%
O=C(COC(=O)/C=C/c1ccccc1Cl)NCc1ccco1 | inconclusive: 32.2%
CCc1cc(-c2[nH]ncc2-c2ccc([N+](=O)[O-])cc2)c(O)cc1OC | inactive: 12.6%
COc1ccc(NC(=O)c2cccnc2NCCc2ccccc2)cc1 | inconclusive: 36.8%
COc1cc(-c2nnc(NC(=O)CS(=O)(=O)c3ccc(F)cc3)o2)cc(OC)c1OC | inactive: 0.397%
O=C(NNc1nc2c(F)cccc2s1)C1=COCCO1 | inactive: 1.95%
Cc1oc2ccc(OCc3ccc(Br)cc3)cc2c1C(=O)O | inactive: 3.71%

Four entries drawn at random from the list so far:
Compound | activation
O=C(/C=C/c1cccc([N+](=O)[O-])c1)NC(=S)Nc1ccc(CN2CCOCC2)cc1 | inactive: -5.49%
c1cncc(-c2nnc(-c3ccco3)o2)c1 | inactive: 0.0549%
COc1cc(-c2nnc(NC(=O)CS(=O)(=O)c3ccc(F)cc3)o2)cc(OC)c1OC | inactive: 0.397%
Cc1c(C(=O)NCCc2ccccc2)oc2ccccc12 | inconclusive: 48%

An excerpt from above in order of heavy-atom count, ascending.
Compound | activation
O=C(NC(=S)NCCC1=CCCCC1)c1ccc(Br)o1 | inconclusive: 55%
O=C(C1CCCN(S(=O)(=O)c2cc(Cl)ccc2Cl)C1)N1CCCCCC1 (centres undefined) | inconclusive: 34.4%
CC(=O)N1N=C(c2c(-c3ccccc3)c3cc(C)ccc3[nH]c2=O)CC1c1ccco1 (centres undefined) | inactive: 1.13%

(continued)

Compound | activation
Cc1ccc(O)c(C=Nc2cc(C)ccc2O)c1 | inactive: -5.31%
CC(C)(C)c1ccc(C(=O)CS(=O)(=O)c2ccccc2)cc1 | inconclusive: 37.6%
CC(C)(C)OC(=O)CNC(=O)c1[nH]cnc1C(=O)N[C@@H](Cc1ccccc1)C(=O)OC(C)(C)C | active: 82%
Cc1cc(=O)oc2cc(Oc3ncccc3[N+](=O)[O-])ccc12 | inactive: 4.41%
Cc1cccc(-c2noc(CN(C(=O)c3ccc(Br)o3)C(C)C)n2)c1 | inconclusive: 40.7%
Cc1cc(C(=O)NC(C)CCc2ccccc2)ccc1[N+](=O)[O-] (centres undefined) | inconclusive: 36.3%
CC1CCCC(C)N1C(=O)CN1CCN(c2nc(-c3ccc(F)cc3)cs2)CC1 (centres undefined) | inconclusive: 42.1%
CC(=O)c1nn(-c2cccc(Br)c2)cc1C(=O)c1ccco1 | inconclusive: 30.9%
C(=N\Nc1nc2ccccc2[nH]1)/c1c[nH]c2ccccc12 | inactive: 1.97%
Cc1ccc(C(=O)Nc2ccc3cn[nH]c3c2)cc1S(=O)(=O)N1CCOCC1 | active: 91.7%
Cc1cc(C)cc(OCC(=O)O/N=C(\N)Cc2ccc([N+](=O)[O-])cc2)c1 | inconclusive: 39.5%
COc1ccc([C@H]2CC(=O)C=C(c3cccc(OC(F)(F)F)c3)C2)cc1 | inconclusive: 38.6%
O=c1[nH]c(C2CCN(S(=O)(=O)c3ccc(F)cc3)CC2)nc2c1nnn2Cc1ccc2c(c1)OCCO2 | inactive: 4.43%
O=C(Nc1cccnc1)c1ccc(Cl)c(S(=O)(=O)N2CCCCCC2)c1 | inconclusive: 58%
Nc1ccc(C(=O)N2N=C(c3ccc(F)cc3)CC2(O)C(F)(F)F)cc1 (centres undefined) | inconclusive: 34.9%
O=C(Nc1cccc(O)c1)c1ccc(S(=O)(=O)N2CCCCCC2)cc1 | inconclusive: 64.9%
Cc1nn(-c2ccccc2)c2c1c(C)c(CCC(=O)NCC1CCCO1)c(=O)n2C (centres undefined) | inconclusive: 73.1%
COc1cccc(Nc2ncnc3ccccc23)c1 | inconclusive: 38.4%
CCc1ccc(NC(=O)CSC2=C(C#N)C(c3ccco3)C3=C(CCCC3=O)N2)cc1 (centres undefined) | inactive: 2.58%
CCC(=O)Nc1nn(CC(C)C)c2nc3ccc(C)cc3cc12 | inconclusive: 34.6%
O=C1c2cccc(OCC(=O)N3CCCc4ccccc43)c2CCN1Cc1cccnc1 | inactive: 3.18%
O=C(CCc1ccccc1Cl)NC1CCCN(c2ccc(C(F)(F)F)cn2)C1 (centres undefined) | inconclusive: 36.9%
O=C(Nc1ccccc1)Nc1ccc2nnsc2c1 | inconclusive: 35.3%

Compound | activation
CC(C)Cc1cc(C(=O)Nc2ccc3c(c2)OCO3)no1 | inconclusive: 61.4%
CCOC(=O)CNC(=S)N(Cc1ccc(C)cc1)Cc1ccc(C)o1 | inconclusive: 31.1%
Cc1nc(-c2cccc(NC(=O)c3cccs3)c2)cs1 | inconclusive: 39.5%
O=C(c1ccc(-c2ccccc2Cl)o1)N1CCC1 | inconclusive: 38.6%
O=C(NCc1ccc(C(F)(F)F)cc1)C1CC(c2ccccc2C(F)(F)F)=NO1 (centres undefined) | inactive: -8.51%
O=C(Cn1cncn1)N/N=C/c1ccncc1 | inactive: -5.62%
COc1ccc(NC(=O)NC(C)(C(F)(F)F)C(F)(F)F)cc1 | inconclusive: 45.3%
N=c1c2c(ncn1CCCO)Oc1ccc3ccccc3c1C2c1ccccc1 (centres undefined) | inconclusive: 31.5%
N#CC1=C(N)NC(SCc2ccc(F)cc2)=C(C#N)C12CCCCC2 | inactive: 7.09%
COc1ccc(C(=O)Nc2ccc(N3CCCCC3)cc2)cc1Br | inconclusive: 53.8%
O=C(Nc1ccccc1C(F)(F)F)N1CCC(n2c(=O)[nH]c3ccccc32)CC1 | inactive: -2.16%
Cn1cc(/C=C(\C#N)C(=O)Nc2ccccc2O)c2ccccc21 | inconclusive: 43.3%
O=C1C(Cl)=C(NCC2CCCO2)C(=O)N1c1cccc(Cl)c1Cl (centres undefined) | inconclusive: 58.2%
O=C(Cc1ccccc1)NC(=S)Nc1ccc(N2CCCCC2)cc1 | inconclusive: 43.4%
CCOC(=O)C1(Cc2ccccc2Cl)CCN(C(=O)c2cc(C)on2)CC1 | inconclusive: 58.3%
CC(C)c1ccc(/C=C/C(=O)N2CCc3ccccc3C2)cc1 | inconclusive: 32.3%
O=C(CSCc1cccc(Br)c1)NC1CC1 | inconclusive: 36.2%
O=C1C=C(c2cccc(CO)c2)C[C@@H](c2ccc(Cl)cc2)C1 | inconclusive: 32.1%
CN(C(=S)NC(=O)/C=C/c1ccc(F)cc1)C1CCCCC1 | inconclusive: 59.2%
CCOc1ccccc1NC(=S)Nn1cnnc1 | inactive: -2.21%
COc1cccc(C2CC(C(F)(F)F)n3ncc(C(=O)NCC4CCCO4)c3N2)c1 (centres undefined) | inconclusive: 33%
CC(C)CC(=O)Nc1nc(-c2ccc(S(=O)(=O)N3CCOCC3)cc2)cs1 | inconclusive: 35.9%
O=C(Nc1ccc(Br)cc1)C1OCCc2ccccc21 (centres undefined) | inconclusive: 32.7%

Compound | activation
CC1CCN(C(=O)c2ccc(NC3=C(Cl)C(=O)N(Cc4ccccc4)C3=O)cc2)CC1 | inconclusive: 49.7%
N#CC(C#N)=C1NC2(CCCC2)Cc2ccccc21 | inactive: 1.34%
CCCCOc1ccc(C(=O)N2CCC(C)CC2)cc1 | inconclusive: 58.6%
O=C(Nc1ccccc1)c1ccc(CSc2ncccn2)cc1 | inconclusive: 58.8%
COC(=O)C1=C(C(=O)OC)[C@@H]2N(C)c3ccc(OC)cc3[C@@]23C[C@@H](C(=O)OC)N(C(=O)C2CCC2)C3=N1 | inconclusive: 67.8%
O=C(NCC1CCCO1)c1ccc(COc2ccccc2Br)cc1 (centres undefined) | inconclusive: 34.5%
Cc1ccccc1OCCn1c(CCNC(=O)C2CCCCC2)nc2ccccc21 | inactive: 13.5%
CCCCSc1ccc(NC(=O)c2cccnc2)cc1 | inconclusive: 48.1%
O=C(Cn1c(=O)oc2ccccc21)Nc1nc(-c2ccccc2)cs1 | inconclusive: 57.5%
O=C(NC1CCCCCC1)c1ccc2c(=O)n3c(nc2c1)CCCCC3 | inconclusive: 37.4%
O=[N+]([O-])c1ccc2c(c1)C(O)n1ncnc1S2 (centres undefined) | inactive: -0.694%
c1cc(N2CCCC2)ccc1C(c1nnnn1C1CCCCC1)N1CCOCC1 (centres undefined) | inactive: 16.5%
Cc1cccc(NC(=O)CN(C)S(=O)(=O)c2ccc(-c3ccc(=O)[nH]n3)s2)c1C | inconclusive: 66.8%
CCCCCc1cc(=O)[nH]c(=S)[nH]1 | inactive: -2.79%
CC(=O)Nc1ccccc1S(=O)(=O)CC1CC1(Cl)Cl (centres undefined) | inactive: -3.05%
O=C(/C=C/c1ccccc1)N1c2ccccc2Sc2ccc(C(F)(F)F)cc21 | inactive: 19.5%
Cc1ccc(S(=O)(=O)N=Nc2c(O)[nH]c3ccccc23)cc1C | inactive: -0.875%
CC(C)(C)C(=O)/C=C/c1ccc(Oc2ccccc2)cc1 | inconclusive: 51.7%
Cc1ccc2c(c1)c1c(n2CC(O)CNC(CO)(CO)CO)CCCC1 (centres undefined) | inactive: -0.919%
COc1cc(C(C(=O)NC2CCCCC2)N(Cc2cccs2)C(=O)Cc2c[nH]c3ccccc23)cc(OC)c1OC (centres undefined) | inactive: 0.773%
